Data as given in PMC10776897.
These are yes or no findings as the source states them, for the method shown. In cells and extracts the contact can be indirect. Where a sequence is shown, tags or fusion partners need not be part of it.

Chains of the proteins cited; added tags and fusions are not shown. Residues count along the entry.
UniProt Q04206, residues 2-551: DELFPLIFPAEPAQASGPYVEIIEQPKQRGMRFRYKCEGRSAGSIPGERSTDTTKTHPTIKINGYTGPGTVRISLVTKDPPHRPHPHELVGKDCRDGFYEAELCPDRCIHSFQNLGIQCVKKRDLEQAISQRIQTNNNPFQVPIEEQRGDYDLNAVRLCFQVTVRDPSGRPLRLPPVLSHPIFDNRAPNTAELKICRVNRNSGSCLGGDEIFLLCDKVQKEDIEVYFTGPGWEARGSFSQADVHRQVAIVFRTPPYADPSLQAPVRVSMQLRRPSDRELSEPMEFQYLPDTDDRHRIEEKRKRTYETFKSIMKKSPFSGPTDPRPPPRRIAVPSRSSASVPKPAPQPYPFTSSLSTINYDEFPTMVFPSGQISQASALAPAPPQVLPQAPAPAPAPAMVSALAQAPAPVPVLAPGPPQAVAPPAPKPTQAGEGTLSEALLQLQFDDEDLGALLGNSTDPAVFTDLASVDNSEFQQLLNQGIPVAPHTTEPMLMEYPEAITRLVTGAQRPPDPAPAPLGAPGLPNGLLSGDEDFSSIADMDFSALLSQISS

B1: 3xFLAG-tagged c-Rel (protein, UniProt Q04864 2-619)
chain: ASGAYNPYIEIIEQPRQRGMRFRYKCEGRSAGSIPGEHSTDNNRTYPSIQIMNYYGKGKVRITLVTKNDPYKPHPHDLVGKDCRDGYYEAEFGQERRPLFFQNLGIRCVKKKEVKEAIITRIKAGINPFNVPEKQLNDIEDCDLNVVRLCFQVFLPDEHGNLTTALPPVVSNPIYDNRAPNTAELRICRVNKNCGSVRGGDEIFLLCDKVQKDDIEVRFVLNDWEAKGIFSQADVHRQVAIVFKTPPYCKAITEPVTVKMQLRRPSDQEVSESMDFRYLPDEKDTYGNKAKKQKTTLLFQKLCQDHVETGFRHVDQDGLELLTSGDPPTLASQSAGITVNFPERPRPGLLGSIGEGRYFKKEPNLFSHDAVVREMPTGVSSQAESYYPSPGPISSGLSHHASMAPLPSSSWSSVAHPTPRSGNTNPLSSFSTRTLPSNSQGIPPFLRIPVGNDLNASNACIYNNADDIVGMEASSMPSADLYGISDPNMLSNCSVNMMTTSSDSMGETDNPRLLSMNLENPSCNSVLDPRDLRQLHQMSSSSMSAGANSNTTVFVSQSDAFEGSDFSCADNSMINESGPSNSTNPNSHGFVQDSQYSGIGSMQNEQLSDSFPYEFFQV

Biological target: GFP-tagged NSP14 (SARS-CoV-2, WT) (SARS-CoV-2 (Wuhan-Hu-1)) (UniProt P0DTD1)
Assay: co-IP

| Molecule | binding |
| --- | --- |
| 3xFLAG-tagged p65 (from UniProt Q04206 2-551) | no binding |
| B1 | no binding |
